Library screening results

The values are deposited in ChEMBL (CHEMBL3988442, “University of Dundee, Small-Polar-MMV Screening Library” (2021)).

Mtb growth Cornell: 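Whole-cell assay for inhibitors of Mycobacterium tuberculosis growth, labelled Cornell in the record; the read-out is not stated. The concentration is filed as 10 mM, unlikely as a test dose, so the dose is not known. The record gives no direction; compounds strong in two other growth screens of this library score well above the rest, so higher reads as stronger inhibition. Size under these conditions: about 53,000 compounds, about 900 of them at 50% or above in at least one test.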
Mtb heat-shock: 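Assay on Mycobacterium tuberculosis, filed only as a heat shock assay from Cornell; the read-out is not stated. The concentration is filed as 10 mM, unlikely as a test dose, so the dose is not known. The record gives no direction; compounds that gave an IC50 in retests scored well above the rest, so higher reads as stronger inhibition. Size under these conditions: about 69,000 compounds, about 930 of them at 50% or above in at least one test.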

Values are the deposited “Percent Effect”, in %. How 0% and 100% were set is not recorded. Most values in the screen are low, and negative values occur. Compounds were drawn at random from those tested, without regard to their results.

For CCOc1ccc(Cl)c(C(=O)N2CCCSCC2)n1 the result was Mtb growth Cornell: -16.65%; Mtb heat-shock: -3.885%.
For Cc1c(C(=O)N(C)CC(C)O)sc2nc(C(F)(F)F)ccc12 (centres undefined) the result was Mtb growth Cornell: -0.2246%; Mtb heat-shock: 24.41%.
For CC(C)CS(=O)(=O)Nc1ccc2c(c1)OCC(C)(C)C(=O)N2C the result was Mtb growth Cornell: -29.95%; Mtb heat-shock: -12.53%.
For COc1ccc(-c2cn3c(n2)CO[C@@H](CNCc2ccccn2)C3)cc1 the result was Mtb growth Cornell: -24.06%; Mtb heat-shock: -11.4%.
For NCCn1cc(C(=O)N2CCCCCC2c2ccco2)nn1 (centres undefined) the result was Mtb growth Cornell: 38.81%; Mtb heat-shock: 9.4%.
For Cc1cc(CNC2(CO)CCOCC2)ccc1Br the result was Mtb heat-shock: -157.1%.
For Cc1nc(CNCC2CCCN2c2cccnn2)no1 (centres undefined) the result was Mtb heat-shock: -4.496%.
For CN(C)C(C(=O)NCC1(Cn2cccn2)CC1)c1ccc(F)cc1 (centres undefined) the result was Mtb growth Cornell: 3.646%; Mtb heat-shock: -3.913%.
For CN(C)C(=O)CCNC(=O)c1cnc(-c2ccccc2)nc1 the result was Mtb heat-shock: 18.64%.
For CC(C)c1nc(CNc2ccc(CNS(C)(=O)=O)cc2)cs1 the result was Mtb heat-shock: 5.169%.
For CC(C)Oc1ncccc1CNC(=O)N1CCC1 the result was Mtb heat-shock: 6.023%.
For Cc1oncc1C(=O)N1CCc2ncnc(-c3cnn(C)c3)c2CC1.O=C(O)C(F)(F)F the result was Mtb heat-shock: -24.59%.
For CN(C)Cc1nn(C)c2c1CCN(C(=O)c1cnccn1)C2.O=C(O)C(F)(F)F the result was Mtb growth Cornell: -25.47%; Mtb heat-shock: -27.1%.
For CNC(=O)[C@@H]1C[C@@H](NC(=O)CSc2ccccc2)CN1C1CCOCC1 the result was Mtb growth Cornell: 0.2104%; Mtb heat-shock: -31.24%.
For COCCN1Cc2ccccc2C2(CCN(C(=O)c3ccno3)CC2)C1 the result was Mtb growth Cornell: -31.03%; Mtb heat-shock: -18%.
For O=C(CCNC(=O)c1ccoc1)Nc1c(F)cccc1F the result was Mtb heat-shock: 7.984%.
For Cn1nc(C(=O)N2CCOCC2)cc1C(=O)Nc1ccc(Cl)cc1Cl the result was Mtb heat-shock: 13.26%.
For CN1CCC(Cc2noc(CCc3nc4ccccc4nc3O)n2)CC1 the result was Mtb growth Cornell: 9.303%; Mtb heat-shock: -3.141%.
For N#CCc1ccc(OCC(=O)NS(=O)(=O)c2cccs2)cc1 the result was Mtb growth Cornell: -46.28%; Mtb heat-shock: -20.76%.
For [H][C@]12CC[C@](O)(c3ccc(F)cc3)[C@@]1([H])CN(C(=O)c1cc(C3CC3)on1)C2 the result was Mtb growth Cornell: 6.085%; Mtb heat-shock: 9.466%.
For CN(CCNC(=O)Nc1ccncc1)C1CCCCC1 the result was Mtb growth Cornell: -15.25%; Mtb heat-shock: -20.87%.
For Cn1ncc2c(=O)[nH]c(CN3CCCC3c3ccsc3)nc21 (centres undefined) the result was Mtb heat-shock: -12.54%.
For COc1cc(OC)cc(C(=O)Nc2ncnc3c2CCC3)c1 the result was Mtb growth Cornell: -13.79%; Mtb heat-shock: -16.66%.
For COCCOCC(=O)N(C)Cc1ccc(OCc2cccs2)cc1 the result was Mtb growth Cornell: 24.54%; Mtb heat-shock: -3.484%.
For [H][C@@]12CN(Cc3cccc(C)n3)C[C@]1([H])N(CCCN1CCOCC1)C(=O)O2 the result was Mtb growth Cornell: 24.51%; Mtb heat-shock: -2.354%.
For COc1cc(C)sc1C(=O)N1CCCCC1c1ccccn1 (centres undefined) the result was Mtb growth Cornell: 1.968%; Mtb heat-shock: -0.7817%.
For COC(=O)C(C)(C)NC(=O)C1CC(=O)N(CC2CC2)C1 (centres undefined) the result was Mtb growth Cornell: -29.99%; Mtb heat-shock: -2.926%.
For COc1cncc(N2CCN(Cc3ccncc3Cl)CC2)n1 the result was Mtb growth Cornell: -5.643%; Mtb heat-shock: -35.27%.
For NC(=O)c1ccc(NC(=O)c2ccncc2F)cn1 the result was Mtb growth Cornell: 3.79%; Mtb heat-shock: -17.09%.
For COCCCNS(=O)(=O)c1cccc(CSC)c1 the result was Mtb growth Cornell: -2.697%; Mtb heat-shock: 24.78%.
For Cn1c(C2CC2)nc2cc(NC(=O)C3CCOC3)ccc21 (centres undefined) the result was Mtb growth Cornell: -0.2129%; Mtb heat-shock: -5.671%.
For CCCS(=O)(=O)NC(=O)c1ccc(-n2nc(C)cc2C)cc1 the result was Mtb growth Cornell: 37.77%; Mtb heat-shock: 5.483%.
For O=C(c1csc(-c2ccco2)n1)N1CCOc2ncccc21 the result was Mtb growth Cornell: -3.749%; Mtb heat-shock: -4.127%.
For Cc1cnn(CC2CN(Cc3nnc(-c4occc4C)o3)CCO2)c1 (centres undefined) the result was Mtb growth Cornell: 39.83%; Mtb heat-shock: 4.654%.
For CCCn1[nH]cc/c1=N\C(=O)CN1CCC[C@H]1CO the result was Mtb growth Cornell: -3.072%; Mtb heat-shock: 14.71%.
For COc1ccc(Cc2nc3c([nH]2)CC(C)(C)CNC3=O)c(OC)c1 the result was Mtb growth Cornell: -5.179%; Mtb heat-shock: -8.85%.
For CCOC(C)C(=O)N1CCN(S(C)(=O)=O)CC1 (centres undefined) the result was Mtb growth Cornell: 1.172%; Mtb heat-shock: 2.267%.
For Cc1csc2c(=O)n3c(nc12)CCN(C(=O)c1ccccn1)CC3 the result was Mtb heat-shock: -5.91%.
For O=C1NCCN1C1CCN(Cc2nc(-c3ccccc3)no2)CC1 the result was Mtb growth Cornell: 7.208%; Mtb heat-shock: -15.97%.

Some entries from above, unchanged:

SMILES	Mtb growth Cornell	Mtb heat-shock
CN1CCC(Cc2noc(CCc3nc4ccccc4nc3O)n2)CC1	9.303	-3.141
CCOc1ccc(Cl)c(C(=O)N2CCCSCC2)n1	-16.65	-3.885
CN(C)Cc1nn(C)c2c1CCN(C(=O)c1cnccn1)C2.O=C(O)C(F)(F)F	-25.47	-27.1